Results taken from paper PMC10760247.
No constants are given. Whether binding was seen depends on the method and setting. In cells and extracts the contact can be indirect. A yes stands for co-enrichment or nearness to the bait. Other partners may have been found.

Amino acid sequences for entries named in this document (tags omitted).
UniProt Q9WVA4: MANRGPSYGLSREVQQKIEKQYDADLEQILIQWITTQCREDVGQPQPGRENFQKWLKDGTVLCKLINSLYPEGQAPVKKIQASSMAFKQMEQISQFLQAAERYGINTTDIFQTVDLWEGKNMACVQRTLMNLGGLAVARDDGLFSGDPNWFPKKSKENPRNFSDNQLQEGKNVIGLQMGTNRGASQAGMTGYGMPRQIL

Biological target: T1, fatty-acid-binding protein 5 (FABP5) (mouse (endogenous in activated CD8+ T cells from C57BL/6J mice)) (UniProt Q05816)
T1 sequence: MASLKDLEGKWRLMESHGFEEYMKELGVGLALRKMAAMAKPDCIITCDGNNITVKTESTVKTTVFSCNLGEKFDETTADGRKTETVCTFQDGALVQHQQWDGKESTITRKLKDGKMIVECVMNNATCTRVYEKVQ
Assay: affinity purification with mass spectrometry; lysate of activated mouse CD8+ T cells (Pierce IP Lysis Buffer), precleared with streptavidin Dynabeads; biotinylated goat anti-mouse FABP5 antibody or biotinylated goat IgG control overnight at 4°C, captured on Dynabeads MyOne Streptavidin T1; washed with PBS with 0.05% tween-20; eluted with 0.1M glycine HCl; LC-MS/MS

binding: binds
Substance: Transgelin 2 (TAGLN2) (from UniProt Q9WVA4 1-199)
